# Data: PubChem BioAssay AID1487 (National Center for Advancing Translational Sciences (NCATS), 2009)
# Several values for one entry are separate records, joined by “and”; a condition that tells them apart may be missing. Equal values may be shown once. The list shows a part of the results. The main result of the screen is listed elsewhere. These columns were measured beside it and carry no call. Most of these compounds were active or inconclusive in the main read-out, so they are no random draw. The note in brackets gives the kind of curve behind each potency; many fits are weak.
# Test: qHTS Assay for Modulators of Lamin A Splicing
# Conditions: HeLa LMNA splicing GFP/RFP minigene ratio, 48 h
# Procedure, shortened: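 S3 HeLa cells stably expressing lamin A-EGFP splicing minigene plus DsRed2, 600 cells/well, 48 h compound exposure at 37C. Laser-scanning cytometry; analysed as GFP (500-530 nm)/RFP (575-640 nm) total intensity ratio; 0.5% DMSO vehicle.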
# [1] = measured here: GFP splicing reporter channel
# [2] = measured here: RFP viability control channel
SMILES,AC50 [1],AC50 [2]
Cc1cccc(NC(=O)NC2COc3ccccc3C2)c1C (stereo unspecified),"39.8 µM [rising, partial curve, poor fit]",–
CCSc1ccccc1C(=O)Nc1ccc2c(c1)OCO2,"14.1 µM [rising, partial curve, poor fit]",–
CC(OC(=O)c1cc2sccc2n1C)C(=O)NCc1cccs1 (stereo unspecified),–,"35.5 µM [rising, single point]"
Cc1ccc(CSCCNC(=O)c2ccc(Cl)c(S(=O)(=O)N3CCOCC3)c2)cc1,–,"14.1 µM [rising, single point]"
CCCCS(=N)(=O)CCC(N)C(=O)O (stereo unspecified),"35.5 µM [rising, single point]","17.8 µM [rising, single point]"
CC(=O)O[C@H]1CC2(C)[C@@H](C[C@@H](O)[C@H]3[C@@]4(C)CC[C@@H](O)[C@@H](C)[C@@H]4CC[C@@]32C)C1=C(CCC=C(C)C)C(=O)O (stereo partly specified),"0.0355 µM [rising, full curve, poor fit]",–
Cc1ccccc1NC(=O)CSc1nc(Nc2ccccc2)nc(N2CCOCC2)n1,–,"11.2 µM [rising, partial curve]"
C=CCn1c(COc2cccc(C)c2C)nnc1SCC(=O)N1CCN(c2ccccc2)CC1,–,"3.55 µM [rising, partial curve]"
Cc1cc(C)cc(NC(=O)C(=O)NCC(c2cccnc2)N2CCc3ccccc32)c1 (stereo unspecified),"0.708 µM [rising, full curve, poor fit]","1.41 µM [rising, full curve]"
CCC/C=C(\CCC)C(NS(=O)(=O)c1cccc2cccnc12)c1ccc(C(=O)OC)cc1 (stereo unspecified),"15.8 µM [rising, single point]","25.1 µM [rising, single point]"
C[C@@H]1CN(c2c(F)c(F)c3c(=O)c(C(=O)O)cn(C4CC4)c3c2F)C[C@H](C)N1,"0.000794 µM [falling, full curve, poor fit]",–
N#C/C(=C\C=C\c1ccccc1[N+](=O)[O-])C(=O)NC1CCCCC1,–,"11.2 µM [rising, partial curve]"
O=C1CCCN1CCCNc1ncnc2c1cnn2-c1ccc(Cl)cc1,–,"15.8 µM [rising, partial curve]"
CC(=O)c1c(C)[nH]c(C(=O)OCC(=O)Nc2cc(C)on2)c1C,–,"35.5 µM [rising, single point]"
O=S(=O)(Nc1cccc(-c2ccc(N3CCOCC3)nn2)c1)c1cc(C(F)(F)F)ccc1Cl,"0.01 µM [rising, full curve, poor fit]",–
COc1cc(OC)cc(-c2nc3ccccc3c(=O)n2OC(=O)c2ccccc2C)c1,–,"14.1 µM [rising, partial curve]"
O=C(/C=C/c1ccccc1)Nc1cccc(C(=O)O)c1,"1.12 µM [falling, full curve, poor fit]","1.78 µM [falling, full curve, poor fit]"
CC(C)Cn1c(CN(C)Cc2ccccc2)nc2c1c(=O)n(C)c(=O)n2C,–,"20 µM [rising, single point]"
C/C(Cc1ccccc1)=N\NC(=O)CNC(=O)c1ccccc1Br,–,"0.0562 µM [rising, full curve, poor fit]"
O=C(NCc1ccccc1Cl)c1cnc(N2CCCCC2)c2ccccc12,"0.178 µM [falling, full curve, poor fit]","0.158 µM [falling, full curve, poor fit]"
Cc1cccc(C2c3[nH]c4ccccc4c3CCN2C(=O)c2cn(C)c3ccccc3c2=O)n1 (stereo unspecified),"3.55 µM [falling, single point]","5.01 µM [falling, partial curve, poor fit]"
CCc1ccc(C2C(C#N)=C(N)N(N(C)C)C3=C2C(=O)CCC3)s1 (stereo unspecified),"12.6 µM [rising, partial curve]",–
O=C(Cc1cccs1)N1CCN(c2ccccn2)CC1,"17.8 µM [rising, partial curve, poor fit]","5.62 µM [rising, partial curve, poor fit]"
Cc1cccc(-c2nc(Nc3ccc(N4CCOCC4)cc3)c3ccccc3n2)c1,–,"15.8 µM [rising, single point]"
Cc1ccc(CNC(=O)c2cc(C3CC3)nc3c2c(C)nn3-c2cccc(Cl)c2C)cc1,"1.58 µM [rising, partial curve]","0.794 µM [rising, partial curve, poor fit]"
O=C(NCCN1CCOCC1)c1cc(-c2ccccc2)on1,–,"35.5 µM [falling, single point]"
Cc1ccc(NC(=O)CSC2=C(C#N)C(c3ccc4c(c3)OCO4)CC(=O)N2)cc1C (stereo unspecified),–,"22.4 µM [rising, single point]"

# 3 entries from above, arranged by formula weight, falling:
SMILES,AC50 [1],AC50 [2]
Cc1ccc(CNC(=O)c2cc(C3CC3)nc3c2c(C)nn3-c2cccc(Cl)c2C)cc1,"1.58 µM [rising, partial curve]","0.794 µM [rising, partial curve, poor fit]"
COc1cc(OC)cc(-c2nc3ccccc3c(=O)n2OC(=O)c2ccccc2C)c1,–,"14.1 µM [rising, partial curve]"
CCCCS(=N)(=O)CCC(N)C(=O)O (stereo unspecified),"35.5 µM [rising, single point]","17.8 µM [rising, single point]"

# Next part:

SMILES,AC50 [1],AC50 [2]
CCn1c(Sc2ccc([N+](=O)[O-])cn2)nnc1-c1ccco1,–,"20 µM [falling, single point]"
Cc1cc([N+](=O)[O-])ccc1NC(=S)NC(=O)C(c1ccccc1)c1ccccc1,–,"35.5 µM [rising, single point]"
CCOc1ccccc1-n1c(CN2CCN(C(=O)c3ccco3)CC2)nc2ccccc2c1=O,"12.6 µM [falling, partial curve]","25.1 µM [falling, partial curve, poor fit]"
COc1ccc(C(=O)/C=C/c2ccc(F)cc2)c(OC(=O)c2ccc([N+](=O)[O-])cc2)c1,"35.5 µM [falling, single point]","35.5 µM [falling, single point]"
COc1ccc(N2CCN(C(=O)CSc3nnnn3-c3ccc4c(c3)OCCO4)CC2)cc1,"3.98 µM [rising, partial curve, poor fit]",–
Cc1ccc(CSCc2nnc(SCC(=O)N3CCN(c4ccccc4)CC3)n2C)cc1,"20 µM [rising, partial curve]","12.6 µM [rising, single point]"
O=C(Nc1ccc(Cl)cc1C(F)(F)F)C(Sc1cccc[n+]1[O-])c1ccccc1 (stereo unspecified),"1.12 µM [falling, partial curve]","1.12 µM [falling, partial curve]"
Cc1nc(N2CCC(C)CC2)c2nnn(Cc3ccccc3)c2n1,–,"31.6 µM [rising, single point]"
N=c1nc(N2CCCCC2)cc(N)n1O,"0.891 nM [falling, full curve] and 631 nM [falling, full curve, poor fit]","0.251 µM [falling, full curve]"
CCC1CN(C(=O)N2CCC(C(=O)NCc3cc(OC)ccc3OC)CC2)c2ccccc2O1 (stereo unspecified),"5.01 µM [rising, partial curve, poor fit]",–
Cc1ccc(S(=O)(=O)N2CCCCC2)cc1NC(=O)c1ccc2c(=O)n3c(nc2c1)CCCCC3,–,"17.8 µM [rising, single point]"
O=C(CN(c1cccc(C(F)(F)F)c1)S(=O)(=O)c1ccc(Cl)c([N+](=O)[O-])c1)NCc1ccc(F)cc1,"35.5 µM [falling, single point]",–
Cn1c(C(=O)NCc2ccc(F)cc2)cc2cc(S(=O)(=O)N3CCCCC3)ccc21,–,"0.562 µM [rising, single point]"
Nc1c(S(=O)(=O)c2cccs2)c2nc3ccccc3nc2n1/N=C/c1cccc(O)c1,"35.5 µM [falling, single point]","31.6 µM [falling, partial curve, poor fit]"
Cc1cccc2nc(CSC(=N)N)c(Br)n12,–,"31.6 µM [rising, single point]"
COc1ccccc1Cn1c(CNS(=O)(=O)c2ccc(CC(C)C)cc2)nc2cccnc21,"7.94 µM [falling, partial curve]",–
O=C(C1CCCN(S(=O)(=O)c2cccc3nsnc23)C1)N1CCc2ccccc2C1 (stereo unspecified),"7.08 µM [rising, partial curve, poor fit]","11.2 µM [rising, partial curve]"
Cc1cccc2c1N(CCOc1ccccc1)C(=O)C2=O,"2.51 µM [rising, partial curve, poor fit]","2.51 µM [rising, partial curve, poor fit]"
COc1ccc(C)cc1NS(=O)(=O)c1ccc(NC(=O)CN(c2cc([N+](=O)[O-])ccc2C)S(C)(=O)=O)cc1,–,"3.55 µM [rising, single point]"
O=C(/C=C\c1ccccc1OC(=O)c1ccccc1F)c1cc2ccccc2o1,"35.5 µM [falling, single point]","35.5 µM [falling, single point]"
Cc1cccc(C)c1OCC(=O)N1CCC(c2nc3ccccc3o2)CC1,–,"0.0141 µM [falling, full curve, poor fit]"
COc1cccc(-c2nnc(NC(=O)c3ccc(Cl)s3)o2)c1,"35.5 µM [rising, single point]",–
CC(OC(=O)CC(NC(=O)c1ccccc1Cl)c1ccccc1)C(=O)Nc1cccc(Cl)c1Cl (stereo unspecified),"14.1 µM [rising, single point]","10 µM [rising, partial curve]"
Cc1ccc(C)c(NS(=O)(=O)c2c(C)ccc3nsnc23)c1,"5.01 µM [rising, partial curve]",–
O=C(Nc1ccccc1Cl)C1CCN(Cc2cnn(-c3ccccc3)c2-n2cccc2)CC1,–,"11.2 µM [rising, partial curve]"
COc1ccc2nc(NC(=O)C(NS(=O)(=O)c3cccs3)C(C)C)sc2c1 (stereo unspecified),–,"8.91 µM [rising, partial curve]"
